{"source": "PubChem BioAssay AID590", "about": "(National Center for Advancing Translational Sciences (NCATS), 2007)", "note": "Out of some 59,000 compounds screened, about 6,500 (11%) were called active. Inconclusive means that the source gave no clear call. Such entries were picked first, then a sample of the others. Cut-off read from the data, not from the text of the source: active = max dye-equivalent concentration above about 10 nM; inconclusive = mostly about 1.1 nM to 9.6 nM; inactive = weaker than that.", "data": [{"test": "qHTS Assay for Spectroscopic Profiling in A350 Spectral Region", "conditions": "Compound autofluorescence, 340/450 nm, Alexa 350 dye-equivalents; stronger effect = higher value", "values": [{"smiles": "CCCc1[nH]nc2c1C(c1ccc(OC)c(CSC3=NCCS3)c1)C(C#N)=C(N)O2", "note": "(centres undefined)", "max dye-equivalent concentration": "active: 110 nM"}, {"smiles": "CCOC(=O)c1cc2c(N)c(C(=O)c3cc(C#N)c(SC)nc3C)sc2nc1C", "max dye-equivalent concentration": "active: 15 nM"}, {"smiles": "CN1CCN(S(=O)(=O)c2cccc(C(=O)Nc3sc4c(c3C(N)=O)CCCC4)c2)CC1", "max dye-equivalent concentration": "active: 310 nM"}, {"smiles": "COC(=O)c1c(-c2cccs2)csc1NC(=O)c1cccnc1", "max dye-equivalent concentration": "inconclusive: 8.1 nM"}, {"smiles": "CCCCCn1c(CN2CCN(C(=O)OCC)CC2)nc2c1c(=O)n(C)c(=O)n2C", "max dye-equivalent concentration": "inconclusive: 1.2 nM"}, {"smiles": "COC(=O)C1C(=O)C2=C(CC1C)NC(C)=C(C(=O)OC1CCCCC1)C2c1ccc(N(C)C)cc1", "note": "(centres undefined)", "max dye-equivalent concentration": "inconclusive: 1.5 nM"}, {"smiles": "COc1cccc(/C(O)=C2/C(=O)C(=O)N(c3cc(C)on3)C2c2cccs2)c1", "note": "(centres undefined)", "max dye-equivalent concentration": "inconclusive: 1.7 nM"}, {"smiles": "C[N+]1(CCOS(=O)C23CC4CC(CC(C4)C2)C3)CCOCC1", "note": "(centres undefined)", "max dye-equivalent concentration": "inactive"}, {"smiles": "CCC(c1nnnn1C1CCCC1)N(Cc1cccs1)Cc1cc2cc(C)ccc2[nH]c1=O", "note": "(centres undefined)", "max dye-equivalent concentration": "inconclusive: 1.6 nM"}, {"smiles": "CCN(CC)S(=O)(=O)c1cccc(-c2nnc(SCc3nnc(-c4cccs4)o3)n2N)c1", "max dye-equivalent concentration": "inconclusive: 2.3 nM"}, {"smiles": "CCOC(=O)N1CCN(C(=O)CSCC(=O)N=c2sc3cc(OC)ccc3n2C)CC1", "max dye-equivalent concentration": "inconclusive: 1.4 nM"}, {"smiles": "CCOC(=O)CSc1nc2ccc(N3CCOCC3)cc2c(=O)n1Cc1ccc2c(c1)OCO2", "max dye-equivalent concentration": "inconclusive: 9.1 nM"}, {"smiles": "CNc1ncnc2ccc(-c3ccc4c(c3)OCO4)cc12", "max dye-equivalent concentration": "inactive"}, {"smiles": "CCOC(=O)C1CSc2[nH]c(=O)sc2C1c1ccccc1", "note": "(centres undefined)", "max dye-equivalent concentration": "inconclusive: 5.1 nM"}, {"smiles": "CCn1c(=S)sc2nc(C)sc21", "max dye-equivalent concentration": "inactive"}, {"smiles": "CC(C)OCCCNC(=O)CCc1nc(-c2ccccc2)no1", "max dye-equivalent concentration": "inconclusive: 10 nM"}, {"smiles": "COCCn1c(=O)c(-c2cccs2)nc2cnc(Oc3ccccc3)nc21", "max dye-equivalent concentration": "active: 49 nM"}, {"smiles": "C/C=C/c1ccc(OCCCn2cncn2)c(OC)c1", "max dye-equivalent concentration": "inconclusive: 2 nM"}, {"smiles": "NC(=S)c1ccc[n+]([C@@H]2O[C@@H](COP(=O)([O-])OP(=O)(O)OC[C@@H]3O[C@@H](n4cnc5c(N)ncnc54)[C@@H](OP(=O)(O)O)[C@H]3O)[C@@H](O)[C@H]2O)c1", "max dye-equivalent concentration": "inconclusive: 8.3 nM"}, {"smiles": "COc1cc(OC)cc(C(=O)N(Cc2cc3cc(C)ccc3[nH]c2=O)C(C)C)c1", "max dye-equivalent concentration": "inconclusive: 2.9 nM"}, {"smiles": "Cc1nn2c(=O)c(NC(=O)c3ccc(F)cc3)cnc2s1", "max dye-equivalent concentration": "inactive"}, {"smiles": "CCCc1[nH]nc2c1C1(C(=O)N(C(C)C)c3ccccc31)C(C#N)=C(N)O2", "note": "(centres undefined)", "max dye-equivalent concentration": "inactive"}, {"smiles": "CCCc1nnc(NC(=O)CCC(=O)N2CCN(CCOc3ccc(C)cc3)CC2)s1", "max dye-equivalent concentration": "inconclusive: 1.3 nM"}, {"smiles": "Cc1ccc(-c2cc(C(=O)NCCCn3ccnc3)c3cc(Br)ccc3n2)o1", "max dye-equivalent concentration": "active: 110 nM"}, {"smiles": "CCn1cc(C(=O)NCC2CCCO2)c2cc(OC)c(OC)cc2c1=O", "note": "(centres undefined)", "max dye-equivalent concentration": "inactive"}, {"smiles": "OC(CCN1CCOCC1)(c1ccc(Cl)cc1)C1CCCCC1", "note": "(centres undefined)", "max dye-equivalent concentration": "inactive"}, {"smiles": "COc1ccc(Oc2ncc3nc(-c4ccc(OC)cc4)c(=O)n(C)c3n2)cc1", "max dye-equivalent concentration": "inconclusive: 7.2 nM"}, {"smiles": "CCCCc1c(O)nc(SCC(=O)N2CCOCC2)n(-c2ccccc2C)c1=O", "max dye-equivalent concentration": "inconclusive: 6.8 nM"}, {"smiles": "Cc1cc(C)cc(NS(=O)(=O)c2ccc3[nH]cc(C(=O)NCc4ccco4)c(=O)c3c2)c1", "max dye-equivalent concentration": "inconclusive: 1.3 nM"}, {"smiles": "Cc1c(-c2ccccc2)oc2nc3c(c(=O)n(C)c(=O)n3C)n12", "max dye-equivalent concentration": "inconclusive: 2.2 nM"}, {"smiles": "O=C(O)CCC(=O)Nc1ccc(N2CCCCC2)c(C(=O)O)c1", "max dye-equivalent concentration": "inconclusive: 4.2 nM"}, {"smiles": "CCc1ccc(S(=O)(=O)c2n[nH]n3c2nc(=O)c2ccccc23)cc1", "max dye-equivalent concentration": "active: 300 nM"}, {"smiles": "CCOC(=O)N1CCN(CC(=O)Nc2c(C(=O)OC)[nH]c3ccccc23)CC1", "max dye-equivalent concentration": "inactive"}, {"smiles": "CC[N+](CC)(CC)CC", "max dye-equivalent concentration": "inconclusive: 1.3 nM"}, {"smiles": "Cc1cc(C)c(NC(=O)c2cc3c(nc4sccn43)s2)c(C)c1", "max dye-equivalent concentration": "inconclusive: 4.4 nM"}, {"smiles": "CCOc1ccc(-c2cc(CCCC(=O)NCCc3ccc(OC)c(OC)c3OC)no2)cc1", "max dye-equivalent concentration": "inconclusive: 1.3 nM"}, {"smiles": "O=C(NCc1nnc(SCC(=O)N2CCCCCC2)o1)c1ccco1", "max dye-equivalent concentration": "inconclusive: 1.1 nM"}, {"smiles": "COC(=O)c1[nH]c2cccc(OC)c2c1NC(=O)CCN1CCN(c2cccc(Cl)c2)CC1", "max dye-equivalent concentration": "inconclusive: 3.3 nM"}, {"smiles": "CN(CC(=O)NCc1cccc(F)c1)C(=O)c1ccco1", "max dye-equivalent concentration": "inconclusive: 4.4 nM"}, {"smiles": "COC(=O)CSc1nc(N)c(C#N)c(C(C)C)c1C#N", "max dye-equivalent concentration": "inconclusive: 8 nM"}, {"smiles": "CCOc1nc(-c2ccc(OC)cc2)ccc1-c1noc(-c2cc(OC)c(OC)c(OC)c2)n1", "max dye-equivalent concentration": "active: 81 nM"}, {"smiles": "CN1C(=O)c2ccccc2N(C)C1c1ccc2c(c1)OCO2", "note": "(centres undefined)", "max dye-equivalent concentration": "active: 4200 nM"}, {"smiles": "COCCCn1c(=O)c2ccccc2c2ccccc2c1=O", "max dye-equivalent concentration": "inconclusive: 1.2 nM"}, {"smiles": "O=C(c1ccco1)N1CCN(CC(=O)N2CCCc3c2c(=O)oc2ccc(O)cc32)CC1", "max dye-equivalent concentration": "inconclusive: 2 nM"}, {"smiles": "COc1ccc2c(c1)CCC1C2CC[C@]2(C)[C@H](NCCCCCCN3C(=O)C=CC3=O)CC[C@@H]12", "note": "(some centres undefined)", "max dye-equivalent concentration": "inconclusive: 1.3 nM"}, {"smiles": "CCN(c1cccc(C(F)(F)F)c1)S(=O)(=O)c1ccc2c(c1)CCN2C(C)=O", "max dye-equivalent concentration": "inconclusive: 3 nM"}, {"smiles": "N#Cc1ccc(CN2CC[C@@]3(CCCN(S(=O)(=O)c4ccccc4)C3)C2)cc1", "max dye-equivalent concentration": "active: 89 nM"}, {"smiles": "Cc1ccc(S(=O)(=O)N2CCC(C(=O)NCCN3CCCCCC3)CC2)cc1", "max dye-equivalent concentration": "inconclusive: 1.2 nM"}, {"smiles": "O=C(CSc1nc(-c2ccco2)cc(C(F)(F)F)n1)Nc1ccc2c(c1)CCC2", "max dye-equivalent concentration": "inconclusive: 1.5 nM"}, {"smiles": "COc1ccccc1NC(=O)C1CCCN(S(=O)(=O)c2cccc3nsnc23)C1", "note": "(centres undefined)", "max dye-equivalent concentration": "inactive"}, {"smiles": "CCOC(=O)COc1ccc(C(=O)c2ccccc2)c(O)c1", "max dye-equivalent concentration": "inactive"}, {"smiles": "N#CCC(=O)N1CCn2c1nc1ccccc12", "max dye-equivalent concentration": "inconclusive: 3.9 nM"}, {"smiles": "COc1cccc(C2C=C(c3cccs3)Nc3ncnn32)c1OC", "note": "(centres undefined)", "max dye-equivalent concentration": "inconclusive: 8.6 nM"}, {"smiles": "CCN1CCN(/C=N/c2nc(C)cs2)CC1", "max dye-equivalent concentration": "inconclusive: 1.6 nM"}, {"smiles": "O=C(CCCn1c(=S)[nH]c2cc3c(cc2c1=O)OCO3)N1CCc2ccccc2C1", "max dye-equivalent concentration": "inconclusive: 3.5 nM"}, {"smiles": "Cc1ccc2[nH]c3c(NCc4ccco4)ncnc3c2c1", "max dye-equivalent concentration": "inconclusive: 4.6 nM"}, {"smiles": "CCN1CCCC(OC(=O)Nc2ccccc2)C1", "note": "(centres undefined)", "max dye-equivalent concentration": "inconclusive: 2.3 nM"}, {"smiles": "COC(=O)[C@H](CCSC)NC(=O)NCc1cccs1", "max dye-equivalent concentration": "inconclusive: 5.2 nM"}, {"smiles": "Nc1cc(N)c(OCC(F)(F)F)cc1OCC(F)(F)F", "max dye-equivalent concentration": "active: 11 nM"}, {"smiles": "CC(=O)CC(C)(C)n1nnc(-c2ccccc2)n1", "max dye-equivalent concentration": "inconclusive: 1.5 nM"}, {"smiles": "CCCCC[C@H](CC(=O)NO)C(=O)N[C@@H](C(=O)N1CCC[C@H]1CO)C(C)C", "max dye-equivalent concentration": "inactive"}, {"smiles": "N#Cc1c(NC(=O)CSc2ncnc3sccc23)oc(-c2ccco2)c1-c1ccco1", "max dye-equivalent concentration": "inactive"}, {"smiles": "COC(=O)Cc1nc2ccccc2[nH]1", "max dye-equivalent concentration": "inconclusive: 1.4 nM"}, {"smiles": "Cc1cccc(N(C(=O)Cn2nnc3ccccc32)C(C(=O)NCc2ccco2)c2ccncc2)c1", "note": "(centres undefined)", "max dye-equivalent concentration": "inactive"}, {"smiles": "S=c1nc(C2CC2)[nH]c2ccccc12", "max dye-equivalent concentration": "inconclusive: 3.1 nM"}, {"smiles": "COc1ccccc1-c1nc(C#N)c(N2CCN(c3cccc(Cl)c3)CC2)o1", "max dye-equivalent concentration": "active: 100 nM"}, {"smiles": "COc1cccc(-c2cc(C(=O)Nc3cnn(Cc4ccc(F)cc4)c3)no2)c1", "max dye-equivalent concentration": "inactive"}, {"smiles": "CC1CCCCN1C(=O)CSc1nc2cc3c(cc2c(=O)n1Cc1ccc2c(c1)OCO2)OCO3", "note": "(centres undefined)", "max dye-equivalent concentration": "inconclusive: 1.2 nM"}, {"smiles": "COc1ccccc1CN1C(=O)CCC1(C)C(=O)NCc1cccnc1", "note": "(centres undefined)", "max dye-equivalent concentration": "active: 13 nM"}, {"smiles": "COc1cc(C2C(C#N)=C(N)Oc3cc(N(C)C)ccc32)cc2c1OCO2", "note": "(centres undefined)", "max dye-equivalent concentration": "inconclusive: 1.1 nM"}, {"smiles": "Cc1cc(-n2nnc3ccccc32)nc2ccccc12", "max dye-equivalent concentration": "inconclusive: 1.3 nM"}, {"smiles": "O=C(c1cc2nc(-c3ccco3)cc(C(F)(F)F)n2n1)N1CCN(c2ccccn2)CC1", "max dye-equivalent concentration": "active: 34 nM"}, {"smiles": "COc1ccc(N2CCN(C(=O)CC3NC4CCCCC4NC3=O)CC2)cc1", "note": "(centres undefined)", "max dye-equivalent concentration": "inactive"}, {"smiles": "COCCn1nnnc1C(c1cc2ccc(C)cc2[nH]c1=O)N(Cc1ccco1)Cc1cccs1", "note": "(centres undefined)", "max dye-equivalent concentration": "inconclusive: 7.1 nM"}, {"smiles": "CCn1c(SCC(=O)N2CCN(c3ccc(Cl)cc3)CC2)nc2ccccc2c1=O", "max dye-equivalent concentration": "inconclusive: 2.7 nM"}, {"smiles": "COc1ccc(C(=O)NCC(c2ccc(F)cc2)N2CCOCC2)cc1S(=O)(=O)N1CCCC1", "note": "(centres undefined)", "max dye-equivalent concentration": "inconclusive: 1.7 nM"}, {"smiles": "COc1cc2c3cc1Oc1cc(ccc1O)C[C@@H]1c4c(cc(OC)c(O)c4Oc4ccc(cc4)C[C@H]3[N+](C)(C)CC2)CC[N+]1(C)C", "max dye-equivalent concentration": "inconclusive: 1.7 nM"}, {"smiles": "O=C(CSc1nc2ccccc2c(=O)[nH]1)Nc1ccc(S(=O)(=O)N2CCCC2)cc1", "max dye-equivalent concentration": "inactive"}, {"smiles": "CC(=O)Nc1ccc(C(=O)CSc2nnc3scc(-c4ccccc4)n23)cc1", "max dye-equivalent concentration": "inconclusive: 1.9 nM"}, {"smiles": "O=C(COc1ccccc1)NCc1ccc2c(c1)OCO2", "max dye-equivalent concentration": "inconclusive: 2.3 nM"}, {"smiles": "CCOC(=O)c1ccc2[nH]c(C)c(CN3CCN(C)CC3)c(=O)c2c1", "max dye-equivalent concentration": "inconclusive: 2 nM"}, {"smiles": "CN1C(=O)NC(NC(=O)c2ccncc2)(C(F)(F)F)C1=O", "note": "(centres undefined)", "max dye-equivalent concentration": "inconclusive: 5.3 nM"}, {"smiles": "O=C(CC(c1ccco1)S(=O)(=O)c1ccccc1)c1ccc(F)cc1", "note": "(centres undefined)", "max dye-equivalent concentration": "inconclusive: 2.4 nM"}, {"smiles": "O=c1c(-c2cc(F)cc(F)c2)nc2cnc(N3CCOCC3)nc2n1CCc1ccccc1", "max dye-equivalent concentration": "inconclusive: 1.7 nM"}]}]}
